Data as given in PubChem BioAssay AID1259425 (University of Nebraska Medical Center, 2018).
Aim: 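Compare each knockdown with KSR1 silencing using changes in marker transcripts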 (primary screen). Cells: HCT116 human colon cancer cells. Reagent: siRNA pool against human genes, 50 nM siRNA. Read-out: 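mRNA of six signature genes measured together by branched-DNA assay after 50 nM siRNA pool, blank removed, divided by geometric mean of two housekeeping genes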. Direction: BNIP3L mRNA: higher = more BNIP3L transcript after knockdown; NDRG1 mRNA: higher = more NDRG1 transcript after knockdown; BNIP3 mRNA: higher = more BNIP3 transcript after knockdown; ALDOC mRNA: higher = more ALDOC transcript after knockdown; ACSL5 mRNA: higher = more ACSL5 transcript after knockdown.
In all, the deposit lists about 14,000 reagents; this is an unselected part. Some reagents were tested in more than one well and are listed for each. Not stated in the record: the time to read-out.

no.	Gene	BNIP3L mRNA, set 1	NDRG1 mRNA, set 1	BNIP3 mRNA, set 1	ALDOC mRNA, set 1	ACSL5 mRNA, set 1
1	HMGB3 (GeneID 3149)	0.13	0.185	0.335	0.0105	0.133
2	HDAC9 (GeneID 9734)	0.0438	0.0871	0.334	0.0198	0.152
3	HOXA6 (GeneID 3203)	0.105	0.206	0.387	0.0418	0.157
4	GBP3 (GeneID 2635)	0.0876	0.379	0.232	0.0223	0.171
5	AIF1L (GeneID 83543)	0.355	0.312	0.325	0.19	0.269
6	IL2 (GeneID 3558)	0.12	0.117	0.431	0.0176	0.12
7	S1PR1 (GeneID 1901)	0.168	0.524	0.415	0.0544	0.287
8	PDZRN3 (GeneID 23024)	0.0623	0.121	0.261	0.0225	0.151
9	LMTK2 (GeneID 22853)	0.0942	0.0463	0.423	0.00553	0.191
10	IFT46 (GeneID 56912)	0.144	0.176	0.348	0.0108	0.134
11	OTC (GeneID 5009)	0.0873	0.131	0.246	0.0242	0.0709
12	RPLP2 (GeneID 6181)	0.0614	0.358	0.313	0.0214	0.0721
13	NCKAP1 (GeneID 10787)	0.163	0.227	0.463	0.0307	0.16
14	RTF1 (GeneID 23168)	0.122	0.147	0.937	0.0307	0.169
15	FRG2 (GeneID 448831)	0.137	0.417	0.284	0.0232	0.293
16	EDC3 (GeneID 80153)	0.271	0.725	0.451	0.0499	0.465
17	CLDN16 (GeneID 10686)	0.0997	0.0769	0.287	0.0385	0.127
18	DZIP1 (GeneID 22873)	0.0835	0.189	0.227	0.0185	0.156
19	HOOK2 (GeneID 29911)	0.0416	0.0694	0.299	0.02	0.0591
20	SIPA1L2 (GeneID 57568)	0.12	0.0673	0.293	0.0171	0.199
21	IRF3 (GeneID 3661)	0.137	0.093	0.242	0.0083	0.177
22	PZP (GeneID 5858)	0.121	0.269	0.344	0.0257	0.232
23	OR5I1 (GeneID 10798)	0.101	0.553	0.2	0.0464	0.126
24	KCNMB2 (GeneID 10242)	0.149	0.175	0.399	0.0276	0.244
25	SERPINB4 (GeneID 6318)	0.134	0.25	0.333	0.0342	0.143
26	FNTA (GeneID 2339)	0.152	0.202	0.374	0.0491	0.152
27	PARVG (GeneID 64098)	0.107	0.171	0.232	0.0278	0.217
28	MCAM (GeneID 4162)	0.0896	0.107	0.374	0.0113	0.135
29	SPEG (GeneID 10290)	0.106	0.127	0.341	0.0398	0.124
30	SPEG (GeneID 10290)	0.0949	0.271	0.502	0.0106	0.306
31	MERTK (GeneID 10461)	0.0771	0.111	0.232	0.0056	0.243
32	GPR132 (GeneID 29933)	0.112	0.262	0.329	0.0178	0.189
33	ADGRE1 (GeneID 2015)	0.116	0.129	0.272	0.0308	0.099
34	PPP1CC (GeneID 5501)	0.0856	0.129	0.261	0.0203	0.0654

Not a retest: 2 of the entries above.
no.	Gene	BNIP3L mRNA, set 1	NDRG1 mRNA, set 1	BNIP3 mRNA, set 1	ALDOC mRNA, set 1	ACSL5 mRNA, set 1
18	DZIP1 (GeneID 22873)	0.0835	0.189	0.227	0.0185	0.156
19	HOOK2 (GeneID 29911)	0.0416	0.0694	0.299	0.02	0.0591
